The supplement of paper PMC11006884
The list shows a part of the results, in another mix than the full data.

Sequences of proteins named here, by UniProt entry; tags and fusion partners are left off. A change or cut given only in a name is not applied to a line headed by its entry.
UniProt Q15154: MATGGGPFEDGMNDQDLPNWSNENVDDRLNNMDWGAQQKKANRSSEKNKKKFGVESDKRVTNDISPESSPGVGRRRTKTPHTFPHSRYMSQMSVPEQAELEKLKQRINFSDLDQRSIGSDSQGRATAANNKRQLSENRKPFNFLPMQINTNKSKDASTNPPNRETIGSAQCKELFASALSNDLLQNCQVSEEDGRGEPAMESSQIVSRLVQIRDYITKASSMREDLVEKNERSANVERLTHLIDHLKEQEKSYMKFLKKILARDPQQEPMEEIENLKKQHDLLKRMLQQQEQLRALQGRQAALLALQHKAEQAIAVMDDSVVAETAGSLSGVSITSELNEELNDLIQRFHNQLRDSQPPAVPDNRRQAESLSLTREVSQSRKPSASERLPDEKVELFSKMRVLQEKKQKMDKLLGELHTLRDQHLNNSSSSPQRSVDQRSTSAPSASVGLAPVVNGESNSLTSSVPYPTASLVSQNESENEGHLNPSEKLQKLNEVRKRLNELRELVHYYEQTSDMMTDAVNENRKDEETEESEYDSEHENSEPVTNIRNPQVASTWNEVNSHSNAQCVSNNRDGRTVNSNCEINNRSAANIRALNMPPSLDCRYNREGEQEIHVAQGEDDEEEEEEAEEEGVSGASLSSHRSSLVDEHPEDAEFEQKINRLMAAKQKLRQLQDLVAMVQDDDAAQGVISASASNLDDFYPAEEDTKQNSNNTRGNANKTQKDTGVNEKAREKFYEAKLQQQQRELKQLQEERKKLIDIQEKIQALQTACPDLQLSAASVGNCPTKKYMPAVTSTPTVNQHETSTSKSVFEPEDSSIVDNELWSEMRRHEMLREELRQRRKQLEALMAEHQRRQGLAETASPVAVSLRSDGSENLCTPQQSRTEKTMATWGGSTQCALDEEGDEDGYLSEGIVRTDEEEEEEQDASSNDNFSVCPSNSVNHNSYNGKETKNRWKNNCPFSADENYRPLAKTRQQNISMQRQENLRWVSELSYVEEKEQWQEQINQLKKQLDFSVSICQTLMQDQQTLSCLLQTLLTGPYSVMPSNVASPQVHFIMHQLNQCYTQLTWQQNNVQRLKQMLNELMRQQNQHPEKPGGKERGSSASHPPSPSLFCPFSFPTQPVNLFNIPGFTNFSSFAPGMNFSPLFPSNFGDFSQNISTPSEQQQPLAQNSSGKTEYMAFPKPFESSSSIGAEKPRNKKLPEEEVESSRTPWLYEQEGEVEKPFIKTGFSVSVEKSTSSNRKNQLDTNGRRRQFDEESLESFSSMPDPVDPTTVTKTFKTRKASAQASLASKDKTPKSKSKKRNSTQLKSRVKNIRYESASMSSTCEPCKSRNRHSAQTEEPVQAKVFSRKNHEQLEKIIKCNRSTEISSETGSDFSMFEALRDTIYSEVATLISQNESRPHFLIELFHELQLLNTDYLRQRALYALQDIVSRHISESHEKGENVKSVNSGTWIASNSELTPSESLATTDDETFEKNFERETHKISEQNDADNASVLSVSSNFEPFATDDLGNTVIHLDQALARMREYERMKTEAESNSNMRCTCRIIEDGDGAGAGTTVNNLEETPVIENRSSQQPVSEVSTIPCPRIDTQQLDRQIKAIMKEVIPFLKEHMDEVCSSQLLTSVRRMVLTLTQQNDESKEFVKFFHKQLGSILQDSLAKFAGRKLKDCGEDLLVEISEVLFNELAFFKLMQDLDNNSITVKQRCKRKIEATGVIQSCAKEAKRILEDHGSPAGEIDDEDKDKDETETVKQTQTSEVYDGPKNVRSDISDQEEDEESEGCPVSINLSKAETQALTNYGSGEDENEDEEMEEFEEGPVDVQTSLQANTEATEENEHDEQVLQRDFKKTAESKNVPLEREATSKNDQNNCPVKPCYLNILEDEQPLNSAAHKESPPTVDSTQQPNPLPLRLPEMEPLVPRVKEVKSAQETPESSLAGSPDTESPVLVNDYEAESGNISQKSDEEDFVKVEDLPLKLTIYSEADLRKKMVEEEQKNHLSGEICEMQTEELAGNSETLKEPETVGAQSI
UniProt Q15061: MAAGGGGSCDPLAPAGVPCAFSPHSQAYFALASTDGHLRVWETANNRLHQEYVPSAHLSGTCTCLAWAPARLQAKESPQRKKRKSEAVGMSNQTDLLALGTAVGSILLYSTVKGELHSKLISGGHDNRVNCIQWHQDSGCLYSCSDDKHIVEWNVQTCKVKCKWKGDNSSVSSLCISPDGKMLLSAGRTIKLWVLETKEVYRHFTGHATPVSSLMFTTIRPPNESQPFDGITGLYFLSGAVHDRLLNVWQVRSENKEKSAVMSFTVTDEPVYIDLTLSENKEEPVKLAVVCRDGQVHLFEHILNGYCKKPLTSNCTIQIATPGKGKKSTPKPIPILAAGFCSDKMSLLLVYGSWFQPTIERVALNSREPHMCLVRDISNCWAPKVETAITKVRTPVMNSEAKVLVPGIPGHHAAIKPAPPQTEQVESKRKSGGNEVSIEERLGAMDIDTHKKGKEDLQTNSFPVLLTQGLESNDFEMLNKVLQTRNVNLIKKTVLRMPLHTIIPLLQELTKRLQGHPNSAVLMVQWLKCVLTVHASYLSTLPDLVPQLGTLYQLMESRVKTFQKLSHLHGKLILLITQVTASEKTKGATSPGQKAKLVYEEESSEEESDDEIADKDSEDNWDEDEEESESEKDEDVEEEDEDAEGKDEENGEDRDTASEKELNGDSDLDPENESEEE
UniProt Q53EL6: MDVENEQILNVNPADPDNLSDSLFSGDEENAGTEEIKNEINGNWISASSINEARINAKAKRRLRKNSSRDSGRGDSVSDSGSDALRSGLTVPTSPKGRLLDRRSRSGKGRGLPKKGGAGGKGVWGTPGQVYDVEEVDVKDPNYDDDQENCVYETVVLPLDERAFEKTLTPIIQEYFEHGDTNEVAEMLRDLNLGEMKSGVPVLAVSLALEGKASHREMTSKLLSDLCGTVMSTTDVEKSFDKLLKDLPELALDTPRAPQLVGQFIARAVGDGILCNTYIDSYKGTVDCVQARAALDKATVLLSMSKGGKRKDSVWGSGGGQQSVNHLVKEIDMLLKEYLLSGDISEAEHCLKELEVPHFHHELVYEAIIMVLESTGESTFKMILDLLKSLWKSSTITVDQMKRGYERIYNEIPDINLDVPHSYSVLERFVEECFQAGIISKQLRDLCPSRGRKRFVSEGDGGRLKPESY
UniProt Q15654: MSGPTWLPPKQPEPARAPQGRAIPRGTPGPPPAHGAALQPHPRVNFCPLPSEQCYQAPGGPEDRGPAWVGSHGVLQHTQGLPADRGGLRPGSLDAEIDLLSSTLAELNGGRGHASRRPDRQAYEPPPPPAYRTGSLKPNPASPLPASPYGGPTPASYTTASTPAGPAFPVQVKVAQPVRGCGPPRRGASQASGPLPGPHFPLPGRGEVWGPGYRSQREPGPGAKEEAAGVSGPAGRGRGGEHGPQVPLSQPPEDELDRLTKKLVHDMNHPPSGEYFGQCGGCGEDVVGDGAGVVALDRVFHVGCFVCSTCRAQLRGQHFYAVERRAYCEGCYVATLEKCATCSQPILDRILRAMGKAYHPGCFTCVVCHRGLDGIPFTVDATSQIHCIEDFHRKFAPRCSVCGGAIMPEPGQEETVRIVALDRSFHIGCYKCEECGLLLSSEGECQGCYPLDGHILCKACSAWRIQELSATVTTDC
UniProt Q4ADV7: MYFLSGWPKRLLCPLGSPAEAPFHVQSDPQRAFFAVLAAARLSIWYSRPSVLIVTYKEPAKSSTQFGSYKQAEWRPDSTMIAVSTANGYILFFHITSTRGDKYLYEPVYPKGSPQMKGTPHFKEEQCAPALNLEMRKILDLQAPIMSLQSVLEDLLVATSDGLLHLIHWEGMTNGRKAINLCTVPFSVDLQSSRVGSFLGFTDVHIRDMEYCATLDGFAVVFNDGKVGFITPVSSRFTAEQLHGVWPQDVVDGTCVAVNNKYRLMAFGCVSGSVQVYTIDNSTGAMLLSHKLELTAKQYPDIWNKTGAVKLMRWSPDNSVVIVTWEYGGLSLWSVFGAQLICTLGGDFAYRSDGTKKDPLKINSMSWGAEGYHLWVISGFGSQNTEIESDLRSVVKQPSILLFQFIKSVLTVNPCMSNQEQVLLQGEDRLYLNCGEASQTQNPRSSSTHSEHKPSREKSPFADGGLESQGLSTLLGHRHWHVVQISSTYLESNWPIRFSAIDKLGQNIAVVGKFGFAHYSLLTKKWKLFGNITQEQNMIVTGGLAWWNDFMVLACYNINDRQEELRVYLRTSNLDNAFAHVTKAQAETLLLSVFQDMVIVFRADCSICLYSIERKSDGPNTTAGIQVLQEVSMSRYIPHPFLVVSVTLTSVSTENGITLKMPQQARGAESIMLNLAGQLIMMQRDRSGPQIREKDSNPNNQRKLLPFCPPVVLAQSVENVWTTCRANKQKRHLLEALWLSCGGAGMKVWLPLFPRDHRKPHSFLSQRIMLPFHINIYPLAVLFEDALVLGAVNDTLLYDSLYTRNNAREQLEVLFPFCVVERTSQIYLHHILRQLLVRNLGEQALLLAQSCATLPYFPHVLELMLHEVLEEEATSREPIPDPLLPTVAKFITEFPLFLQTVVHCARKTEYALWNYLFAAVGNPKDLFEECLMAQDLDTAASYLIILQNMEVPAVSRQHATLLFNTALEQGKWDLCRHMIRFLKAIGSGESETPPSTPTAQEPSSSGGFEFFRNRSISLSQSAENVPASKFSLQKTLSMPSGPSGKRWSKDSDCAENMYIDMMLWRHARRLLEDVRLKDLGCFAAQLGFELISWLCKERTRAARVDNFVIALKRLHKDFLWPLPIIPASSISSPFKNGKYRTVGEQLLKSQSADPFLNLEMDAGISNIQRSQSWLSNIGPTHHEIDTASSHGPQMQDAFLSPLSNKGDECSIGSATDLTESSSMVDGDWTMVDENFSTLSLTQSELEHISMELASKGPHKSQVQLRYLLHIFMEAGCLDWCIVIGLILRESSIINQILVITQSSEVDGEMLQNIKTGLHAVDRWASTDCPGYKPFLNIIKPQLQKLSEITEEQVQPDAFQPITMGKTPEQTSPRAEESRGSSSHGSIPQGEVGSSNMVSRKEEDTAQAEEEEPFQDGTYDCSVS
UniProt Q29RF7: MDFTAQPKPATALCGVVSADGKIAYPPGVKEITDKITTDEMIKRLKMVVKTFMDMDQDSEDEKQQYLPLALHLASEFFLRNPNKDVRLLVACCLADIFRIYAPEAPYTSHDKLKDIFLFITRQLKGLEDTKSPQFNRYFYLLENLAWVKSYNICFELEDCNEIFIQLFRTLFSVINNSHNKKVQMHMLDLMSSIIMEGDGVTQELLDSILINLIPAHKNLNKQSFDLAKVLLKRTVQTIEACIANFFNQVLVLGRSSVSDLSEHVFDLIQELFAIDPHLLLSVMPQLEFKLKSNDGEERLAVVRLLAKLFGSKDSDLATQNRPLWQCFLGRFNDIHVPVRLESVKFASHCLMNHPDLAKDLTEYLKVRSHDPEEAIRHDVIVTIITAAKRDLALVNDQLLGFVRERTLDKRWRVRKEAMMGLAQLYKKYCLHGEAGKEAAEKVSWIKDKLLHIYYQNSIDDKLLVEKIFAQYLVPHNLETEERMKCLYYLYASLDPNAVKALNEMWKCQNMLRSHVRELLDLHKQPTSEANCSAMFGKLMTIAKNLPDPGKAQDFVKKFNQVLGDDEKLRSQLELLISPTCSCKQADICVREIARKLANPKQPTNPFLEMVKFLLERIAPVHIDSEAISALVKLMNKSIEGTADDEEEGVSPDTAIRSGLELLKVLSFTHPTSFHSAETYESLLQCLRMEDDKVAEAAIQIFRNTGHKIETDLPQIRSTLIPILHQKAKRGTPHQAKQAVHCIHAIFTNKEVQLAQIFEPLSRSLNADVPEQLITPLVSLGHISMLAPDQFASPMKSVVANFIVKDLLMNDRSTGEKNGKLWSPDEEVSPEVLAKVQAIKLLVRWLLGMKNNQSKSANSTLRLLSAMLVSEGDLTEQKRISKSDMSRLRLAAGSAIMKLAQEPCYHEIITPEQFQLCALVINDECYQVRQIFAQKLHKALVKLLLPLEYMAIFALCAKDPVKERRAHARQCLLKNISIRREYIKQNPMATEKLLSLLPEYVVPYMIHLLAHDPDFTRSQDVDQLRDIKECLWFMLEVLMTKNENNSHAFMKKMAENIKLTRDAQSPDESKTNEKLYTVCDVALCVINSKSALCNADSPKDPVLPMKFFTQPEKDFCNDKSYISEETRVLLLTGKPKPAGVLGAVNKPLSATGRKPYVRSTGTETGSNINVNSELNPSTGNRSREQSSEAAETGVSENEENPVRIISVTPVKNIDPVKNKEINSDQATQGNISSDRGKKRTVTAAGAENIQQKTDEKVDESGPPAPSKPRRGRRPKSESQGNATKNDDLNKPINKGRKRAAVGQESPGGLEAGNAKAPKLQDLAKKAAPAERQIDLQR

Compound: COC(=O)C#Cc1ccccc1 [methyl 3-phenylpropiolate]
Assay: log2 ratio of iodoacetamide-alkyne labeling of the cysteine site, DMSO over compound (competition); higher = stronger covalent engagement of the cysteine by the compound, active = 1 or more
Details: 500 µM; treatment time 1 h; system: HEK293T cell lysate
Method in brief: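 Reporter intensities give each cysteine's log2 competition ratio as the mean of control channels over the mean of compound channels. The samples were HEK293T lysate (2 mg/mL) given vehicle or electrophile (500 µM, 1 h, ambient temperature), then iodoacetamide alkyne (1 h), followed by click coupling to sCIP-TMT reagents, pooling, trypsin digestion overnight at 37 °C, streptavidin enrichment, acid elution, Orbitrap Eclipse LC-MS/MS with FAIMS and FragPipe quantification. Duplicate channels and three replicates were run, and cysteines quantified in only one replicate were discarded.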

Target | log2 ratio of iodoacetamide-alkyne labeling
PWP2 C24 (UniProt Q15269) | inactive: -0.172
PCM1 C876 (UniProt Q15154) | inactive: 0.408
WDR43 C380 (UniProt Q15061) | inactive: 0.495
VPS26B C334 (UniProt Q4G0F5) | inactive: 0.1
UBE3C C622 (UniProt Q15386) | inactive: 0.0907
MAP7D1 C328 (UniProt Q3KQU3) | inactive: 0.54
SETDB1 C1226 (UniProt Q15047) | inactive: 0.0374
FASTKD1 C46 (UniProt Q53R41) | inactive: 0.53
UniProt Q16637_C60 | inactive: 0.597
UniProt Q15750_C24 | inactive: 0.554
TBCE C141 (UniProt Q15813) | inactive: 0.344
KIF14 C610 (UniProt Q15058) | inactive: 0.442
EFTUD2 C144 (UniProt Q15029) | inactive: 0.297
PDCD4 C227 (UniProt Q53EL6) | inactive: 0.105
TRIP6 C387 (UniProt Q15654) | inactive: 0.15
AMOT C617 (UniProt Q4VCS5) | inactive: 0.126
PAFAH1B3 C205 (UniProt Q15102) | inactive: 0.0931
LARS2 C167 (UniProt Q15031) | inactive: -0.0977
LRRC41 C792 (UniProt Q15345) | inactive: 0.506

Target | log2 ratio of iodoacetamide-alkyne labeling
HNRNPUL2 C308 (UniProt Q1KMD3) | inactive: 0.826
PDCD4 C150 (UniProt Q53EL6) | inactive: 0.564
SEC23B C767 (UniProt Q15437) | inactive: 0.00601
UniProt Q4ADV7_C182 | inactive: -0.105
SF3B3 C1156 (UniProt Q15393) | inactive: 0.0723
TWISTNB C5 (UniProt Q3B726) | inactive: 0.889
IAH1 C137 (UniProt Q2TAA2) | inactive: 0.339
FAM98C C287 (UniProt Q17RN3) | inactive: 0.129
LRRC41 C588 (UniProt Q15345) | inactive: 0.225
PCBP2 C109 (UniProt Q15366) | inactive: 0.537
UniProt Q16512_C317 | inactive: 0.267
SUZ12 C46 (UniProt Q15022) | inactive: 0.117
PDS5A C583 (UniProt Q29RF7) | inactive: 0.744
FAM98B C216 (UniProt Q52LJ0) | inactive: -0.115
UniProt Q15365_C163 | inactive: 0.0788
TBCE C301 (UniProt Q15813) | inactive: 0.581
SS18 C34 (UniProt Q15532) | inactive: 0.159
PDK3 C41 (UniProt Q15120) | inactive: 0.957

Pulled one by one from above, 2 records:
Target | log2 ratio of iodoacetamide-alkyne labeling
PDS5A C583 (UniProt Q29RF7) | inactive: 0.744
SS18 C34 (UniProt Q15532) | inactive: 0.159
